± gives the half width of the 95% confidence interval. For many entries, trypsin and chymotrypsin gave values far apart.
What was measured:
[1] = folding stability dG unfold from chymotrypsin proteolysis; higher = more stable
Protocol: (§1)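 Folding stability of de novo designed mini-proteins (<80 aa, no Cys; designed by TrROS, TrMRF, ProteinMPNN and the joint model) was measured by cDNA display proteolysis with trypsin and chymotrypsin. Each protease was used at 11 concentrations in a threefold dilution series plus a no-protease condition. K50 was inferred by Bayesian fitting of sequencing counts, and dG unfold was derived against a sequence-predicted unfolded-state K50 (Tsuboyama et al. method). Sequences shown include variable-length N-terminal GS-type padding (SAGGSAGG...) inside a display construct carrying a PA tag. Rows were kept only if the AF2 dimer inter-PAE was >15, to exclude likely homo-oligomers.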

[2] = folding stability dG unfold (combined trypsin and chymotrypsin); higher = more stable
Protocol: as §1

## SAGEPPEVVIEVRVERREDGTVRVTVRIRNRDGEEVLEVTVELRREDEEEARRRALEEARRLAEELAASAGG [r19_13_TrROS_Hall]
[1]
  folding stability dG unfold: 3.08 ± 0.32 kcal/mol

## SAGGSAGGNDEDLPRPPSWVTVETETKKKVFNEDGTFLGDATVKSTVVTDPATGTTLATTEFLPSAGGSAGG [r6_962_JUSTAS]
[1]
  folding stability dG unfold: 1.04 ± 0.05 kcal/mol
[2]
  folding stability dG unfold: 0.557 ± 0.23 kcal/mol

## SAGGSAGGSGSMTRTSSIQDPELLAAVKAALAAGEPTATVPAPDGRPVTITEYVGDTLTTTVESAGGSAGGS [r12_334_JUSTAS]
[1]
  folding stability dG unfold: 1.1 ± 0.028 kcal/mol
[2]
  folding stability dG unfold: 0.608 ± 0.043 kcal/mol

## SAGGSAGGSAGEKDLPVIEVEFPFPSSFPLPLIKKFAEPFGVKKVEFFEDGTVKVLYVLDSAGGSAGGSAGG [r11_961_TrMRF]
[1]
  folding stability dG unfold: 0.984 ± 0.14 kcal/mol
[2]
  folding stability dG unfold: 0.806 ± 0.13 kcal/mol

## SAGSPATLRAQAEEEARALAAELGAEVTVDVTVEPVPGEYVVRTTATLTFPGGEVRTLPRTTRVPRSLVSAG [r5_609_JUSTAS]
[1]
  folding stability dG unfold: 1.09 ± 0.08 kcal/mol
[2]
  folding stability dG unfold: 0.953 ± 0.08 kcal/mol

## SAGGSAGGSAPPAQPIPINIKITNPGNGKKREIPFDIPPGMNIEEIADELAKEDGIHRVEIESAGGSAGGSA [r18_58_TrROS]
[1]
  folding stability dG unfold: 1.11 ± 0.048 kcal/mol
[2]
  folding stability dG unfold: 0.465 ± 0.17 kcal/mol

## SAGGSAGGSAVETVREDGTLARITLPETGEEFAVPPDLSDEEARARHPAVVITRAPVPAPPLSAGGSAGGSA [r18_53_JUSTAS]
[1]
  folding stability dG unfold: 1.2 ± 0.016 kcal/mol
[2]
  folding stability dG unfold: 0.666 ± 0.054 kcal/mol

## SAGGSAGGSAGGMDTPLEEAAARHPPDGTLNYQDPESGRTVSITRPPETGELAPTVTASSAGGSAGGSAGGS [r10_777_JUSTAS]
[1]
  folding stability dG unfold: 1.07 ± 0.015 kcal/mol
[2]
  folding stability dG unfold: 0.384 ± 0.064 kcal/mol

## SAGGITIRGMPWEWAEEIAKTLAQEGYRLKDVEVEEDPPDGYYSVTVQQRDPETGKPKKPVTISIPPSAGGS [r16_750_TrROS]
[1]
  folding stability dG unfold: 0.0769 ± 0.44 kcal/mol

## SAGGSAGGSAMTVTVTVTRELPGGKWLGTVTLPGANTPVLVEVPGPLEEAEARLRELAEAASAGGSAGGSAG [r3_104_JUSTAS]
[1]
  folding stability dG unfold: 1.37 ± 0.023 kcal/mol
[2]
  folding stability dG unfold: 0.819 ± 0.057 kcal/mol

## SAGGSAGGSAAKVEIEPRRLPDGRLLVVVRVYDPSTGRVVDRPFLVDPDVITPEDLLALAASAGGSAGGSAG [r3_127_TrMRF]
[1]
  folding stability dG unfold: 2.46 ± 0.041 kcal/mol
[2]
  folding stability dG unfold: 1.94 ± 0.1 kcal/mol

## SAGGSMTARLVELVRPEDSDELVALVRGENGETYTVPASEIEEALSNGKELEVPLPNGEEVTLELSSAGGSA [r2_301_TrMRF]
[1]
  folding stability dG unfold: 1.18 ± 0.051 kcal/mol
[2]
  folding stability dG unfold: 0.536 ± 0.12 kcal/mol

## SAGGSAGGSAGGGFTLIPPEEFEVLRKKLGYTLEGTEELPGPSKAVRLKDPNGKTIVVDSAGGSAGGSAGGS [r10_210_JUSTAS]
[1]
  folding stability dG unfold: 1.15 ± 0.18 kcal/mol
[2]
  folding stability dG unfold: 0.503 ± 0.2 kcal/mol

## SAGGSAGGSAGEIEIEFEPGEEFLDFIKNLPGPIESIEIEPIDPDKVRARLKLNIPEDLASAGGSAGGSAGG [r11_143_TrMRF]
[2]
  folding stability dG unfold: < -1 kcal/mol

## SAGGSAGGSAMPKTTVYTIPYESDEEAEARIEEIKAEARARNPEAKVTVTPAGESVNVTIVGSAGGSAGGSA [r18_469_JUSTAS]
[1]
  folding stability dG unfold: -0.116 ± 0.19 kcal/mol

## SAGGSAGGSPIMVRVERRDKDGKKKPVPTIPIPINNDDPEEALEWANEIAKKAGARDVRVEIWSAGGSAGGS [r12_569_TrROS]
[2]
  folding stability dG unfold: < -1 kcal/mol

## SAGSAAIKALLEKHPKPEVIEVTRLPGSGTLVIKVDDEDHVVPTPPGGFTETLTVDENGNVLSVEPHPASAG [r5_329_JUSTAS]
[1]
  folding stability dG unfold: 1.65 ± 0.064 kcal/mol

## SAGGSAGGMPESAPPVPLPTSTVPLSEARAAGIEVPPGSERVIRTPSGVTYRISSATGTVTVVGSAGGSAGG [r6_275_JUSTAS]
[2]
  folding stability dG unfold: < -1 kcal/mol

## SAGGSAGGSAGGFVGTLKDYPKILKAAKEVGLKVGKIDPKNNKIYVDPSNPEKLKKAIESSAGGSAGGSAGG [r7_285_TrMRF]
[2]
  folding stability dG unfold: < -1 kcal/mol

## SAGGSAGGSAGGMNPIVIKKTYPVKSGSFTVTLPEGVTPVSFEKDPNSDTITIEVLVEPSAGGSAGGSAGGS [r10_906_JUSTAS]
[1]
  folding stability dG unfold: -0.713 ± 0.37 kcal/mol

## SAGGSAGGSAGVTDPNSSKPVPSSYVVVTVRGPEKESYYRVPPSEAAAFAAARGVEVILESAGGSAGGSAGG [r17_109_JUSTAS]
[2]
  folding stability dG unfold: < -1 kcal/mol

## SAGGSADVVLVEVRPPVLDPEGRPLLTLVLRLPDGGSRTLVVELSDLAGALANLPPNVRVDEIRPLSAGGSA [r15_339_TrMRF]
[1]
  folding stability dG unfold: 2.31 ± 0.035 kcal/mol

## SAGSPVTLELRVTRPRADAATGAPATATETVTVTLPAAVVAAGLSPEEIARLLEAANPGATVELTAVASAGG [r19_110_JUSTAS]
[1]
  folding stability dG unfold: 0.259 ± 0.14 kcal/mol

## SAGGSAGGPLVLRIETPEDKVLVLVLPEEAEKLPPKELAEIAAKEFAALPGVKEVKVEIAPLPLSAGGSAGG [r6_710_TrMRF]
[1]
  folding stability dG unfold: 1.11 ± 0.15 kcal/mol

## SAGGSAMKVKSIHWQRHGDRPMVRIKIQNPDGKKRERNIPMDDPEKFKKEAKELAKEGKIKEIEPYSAGGSA [r15_575_TrROS]
[2]
  folding stability dG unfold: < -1 kcal/mol

## SAGGSAGGSGMTVEERTSPDGTRVEVYLGPGSVVREESPEGVVTVRTLTDGRVEREEVVPVPASAGGSAGGS [r12_451_JUSTAS]
[2]
  folding stability dG unfold: < -1 kcal/mol

## SAGMFVKIKFKTADKTVEELVKKIKEETGIPENAKITVIAEKSEDEGFVVIIEFDEEEVRDKIKEIVGSAGG [r19_215_TrMRF]
[1]
  folding stability dG unfold: 1.35 ± 0.062 kcal/mol

## NWVVWAKLTNPEEGERKTYEVPVPPGEEPTEEEILDQAKDMLGRPKEDLRKNVEIEPYPENGWAEIEIRIRS [r1_285_TrROS]
[2]
  folding stability dG unfold: < -1 kcal/mol

## SAGGSAGGSAGPIVLIKIKNKNGKEIEIEMSLEELKKKLPKELKNMKVEIVEVKEVKVEKSAGGSAGGSAGG [r11_353_TrROS_Hall]
[1]
  folding stability dG unfold: 0.315 ± 0.14 kcal/mol
